Measurements reported in patent publication EP1693456A1.
These are yes or no findings as the source states them, for the method shown. Some entries that bind do so weakly or less than the wild type.

The chains behind the UniProt entries cited, without tags or fusion partners. Residues count along the entry.
UniProt O14578: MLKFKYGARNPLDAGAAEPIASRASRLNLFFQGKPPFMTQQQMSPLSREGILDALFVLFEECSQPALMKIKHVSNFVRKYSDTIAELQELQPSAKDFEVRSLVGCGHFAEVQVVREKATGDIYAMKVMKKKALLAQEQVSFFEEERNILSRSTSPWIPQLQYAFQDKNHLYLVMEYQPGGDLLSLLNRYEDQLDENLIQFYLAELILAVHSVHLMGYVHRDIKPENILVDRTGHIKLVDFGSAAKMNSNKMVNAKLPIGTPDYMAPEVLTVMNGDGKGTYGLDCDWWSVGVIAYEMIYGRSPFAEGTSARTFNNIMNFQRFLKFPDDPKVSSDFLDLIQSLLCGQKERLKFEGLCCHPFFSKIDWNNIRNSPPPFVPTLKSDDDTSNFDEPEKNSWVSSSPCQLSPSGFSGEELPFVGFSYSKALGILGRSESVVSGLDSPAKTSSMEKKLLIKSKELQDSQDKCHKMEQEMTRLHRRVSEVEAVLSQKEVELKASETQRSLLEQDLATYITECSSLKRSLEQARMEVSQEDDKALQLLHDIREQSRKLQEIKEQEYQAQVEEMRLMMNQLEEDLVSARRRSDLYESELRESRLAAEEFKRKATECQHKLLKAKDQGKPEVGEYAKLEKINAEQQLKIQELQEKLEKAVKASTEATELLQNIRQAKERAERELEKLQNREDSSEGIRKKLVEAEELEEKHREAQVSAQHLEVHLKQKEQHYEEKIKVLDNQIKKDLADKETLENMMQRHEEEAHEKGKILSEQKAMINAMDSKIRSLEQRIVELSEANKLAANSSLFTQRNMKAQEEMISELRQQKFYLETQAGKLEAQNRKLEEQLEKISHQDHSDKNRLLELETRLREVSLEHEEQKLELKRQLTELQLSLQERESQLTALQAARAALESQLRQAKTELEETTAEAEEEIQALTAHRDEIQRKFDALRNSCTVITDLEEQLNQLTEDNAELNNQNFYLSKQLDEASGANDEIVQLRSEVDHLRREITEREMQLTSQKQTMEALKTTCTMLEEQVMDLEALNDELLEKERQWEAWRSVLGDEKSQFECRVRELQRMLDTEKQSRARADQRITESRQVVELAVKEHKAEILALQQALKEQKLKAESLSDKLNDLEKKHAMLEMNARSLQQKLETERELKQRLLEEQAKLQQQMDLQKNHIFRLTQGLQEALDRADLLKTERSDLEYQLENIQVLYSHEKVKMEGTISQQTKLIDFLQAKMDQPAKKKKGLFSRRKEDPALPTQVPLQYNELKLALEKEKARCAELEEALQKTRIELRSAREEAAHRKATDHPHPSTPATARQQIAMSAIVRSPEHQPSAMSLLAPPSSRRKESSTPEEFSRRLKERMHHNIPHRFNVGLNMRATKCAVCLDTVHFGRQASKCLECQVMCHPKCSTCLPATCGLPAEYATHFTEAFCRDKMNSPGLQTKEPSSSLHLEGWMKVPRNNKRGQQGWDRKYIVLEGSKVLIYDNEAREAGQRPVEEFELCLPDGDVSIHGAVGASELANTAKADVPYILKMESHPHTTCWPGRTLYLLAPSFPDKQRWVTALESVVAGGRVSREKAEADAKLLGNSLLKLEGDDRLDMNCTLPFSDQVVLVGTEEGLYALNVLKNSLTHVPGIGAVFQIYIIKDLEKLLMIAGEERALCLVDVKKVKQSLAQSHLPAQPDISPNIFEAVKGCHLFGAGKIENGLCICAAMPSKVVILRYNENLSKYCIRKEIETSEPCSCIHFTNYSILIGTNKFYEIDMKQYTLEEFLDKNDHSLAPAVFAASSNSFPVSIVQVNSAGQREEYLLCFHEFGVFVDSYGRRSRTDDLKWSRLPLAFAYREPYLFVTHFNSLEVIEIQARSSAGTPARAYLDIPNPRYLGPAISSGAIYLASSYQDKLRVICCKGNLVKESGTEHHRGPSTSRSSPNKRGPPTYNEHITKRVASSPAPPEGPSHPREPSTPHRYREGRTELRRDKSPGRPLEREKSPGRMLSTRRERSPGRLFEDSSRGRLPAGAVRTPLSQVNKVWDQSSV
UniProt Q12840, residues 2-1032: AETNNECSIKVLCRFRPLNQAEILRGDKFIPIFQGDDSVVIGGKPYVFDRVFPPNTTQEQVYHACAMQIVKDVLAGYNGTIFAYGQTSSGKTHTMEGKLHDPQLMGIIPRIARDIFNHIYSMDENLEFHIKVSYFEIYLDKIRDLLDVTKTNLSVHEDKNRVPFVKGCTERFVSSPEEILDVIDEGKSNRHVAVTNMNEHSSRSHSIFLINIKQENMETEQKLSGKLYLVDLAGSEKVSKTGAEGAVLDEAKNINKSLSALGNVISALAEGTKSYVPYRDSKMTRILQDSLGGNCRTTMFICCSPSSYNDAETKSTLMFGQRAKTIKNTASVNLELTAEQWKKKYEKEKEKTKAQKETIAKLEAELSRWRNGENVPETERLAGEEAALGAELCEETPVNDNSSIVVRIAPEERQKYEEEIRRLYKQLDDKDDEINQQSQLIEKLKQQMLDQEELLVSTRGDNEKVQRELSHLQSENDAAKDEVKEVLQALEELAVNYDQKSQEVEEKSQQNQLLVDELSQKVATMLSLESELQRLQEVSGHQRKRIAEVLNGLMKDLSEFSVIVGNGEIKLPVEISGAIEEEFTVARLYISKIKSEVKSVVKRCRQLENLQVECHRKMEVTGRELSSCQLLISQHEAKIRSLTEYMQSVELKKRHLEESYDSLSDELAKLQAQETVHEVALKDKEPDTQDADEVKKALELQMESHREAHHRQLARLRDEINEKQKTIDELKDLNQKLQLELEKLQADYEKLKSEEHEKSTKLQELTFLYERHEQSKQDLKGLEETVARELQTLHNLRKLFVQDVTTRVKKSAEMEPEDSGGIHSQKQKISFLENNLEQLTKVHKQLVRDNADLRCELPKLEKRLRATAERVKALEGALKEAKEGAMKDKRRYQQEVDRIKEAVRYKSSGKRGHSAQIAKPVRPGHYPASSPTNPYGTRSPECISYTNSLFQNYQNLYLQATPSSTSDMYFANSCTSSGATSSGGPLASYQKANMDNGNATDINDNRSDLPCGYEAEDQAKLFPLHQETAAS
UniProt Q92845: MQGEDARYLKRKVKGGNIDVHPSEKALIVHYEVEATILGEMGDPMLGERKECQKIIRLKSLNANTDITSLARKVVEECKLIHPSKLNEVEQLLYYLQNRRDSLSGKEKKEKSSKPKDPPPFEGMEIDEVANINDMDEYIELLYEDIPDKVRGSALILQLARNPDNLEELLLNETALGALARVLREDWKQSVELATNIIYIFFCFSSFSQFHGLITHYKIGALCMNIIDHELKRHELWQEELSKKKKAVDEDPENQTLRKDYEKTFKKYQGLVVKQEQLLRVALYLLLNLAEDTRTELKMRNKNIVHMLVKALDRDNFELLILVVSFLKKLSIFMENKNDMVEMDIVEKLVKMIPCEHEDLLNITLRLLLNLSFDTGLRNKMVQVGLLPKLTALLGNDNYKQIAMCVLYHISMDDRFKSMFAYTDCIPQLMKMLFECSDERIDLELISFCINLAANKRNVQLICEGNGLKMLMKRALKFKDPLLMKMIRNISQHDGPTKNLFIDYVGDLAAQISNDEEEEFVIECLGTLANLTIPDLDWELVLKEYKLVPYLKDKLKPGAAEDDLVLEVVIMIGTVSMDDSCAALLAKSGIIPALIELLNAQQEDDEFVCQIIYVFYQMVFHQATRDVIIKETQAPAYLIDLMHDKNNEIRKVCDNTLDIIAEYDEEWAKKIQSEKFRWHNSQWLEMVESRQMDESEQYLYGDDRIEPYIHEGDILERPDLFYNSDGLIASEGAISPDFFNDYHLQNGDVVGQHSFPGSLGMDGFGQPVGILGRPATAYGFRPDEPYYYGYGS

Columns and labels:
[1] = target: T1, DLG3 (UniProt Q92796); assay: yeast two hybrid
T1 sequence (looked up): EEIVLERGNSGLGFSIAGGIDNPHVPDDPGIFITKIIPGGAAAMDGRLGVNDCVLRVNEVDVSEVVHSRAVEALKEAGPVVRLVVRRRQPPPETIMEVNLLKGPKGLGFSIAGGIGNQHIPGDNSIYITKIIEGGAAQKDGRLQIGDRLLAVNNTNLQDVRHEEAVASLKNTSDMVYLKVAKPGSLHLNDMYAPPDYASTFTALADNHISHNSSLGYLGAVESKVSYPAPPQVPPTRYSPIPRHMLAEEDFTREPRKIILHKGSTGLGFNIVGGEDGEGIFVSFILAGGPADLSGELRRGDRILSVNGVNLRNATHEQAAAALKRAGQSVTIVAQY

[2] = target: Citron (UniProt O14578); assay: yeast two hybrid screen of cDNA libraries
[3] = target: T1, DLG3; assay: yeast two hybrid screen of cDNA libraries
[4] = target: T2, HOMER2 (UniProt Q9NSB8); assay: yeast two hybrid screen of cDNA libraries
T2 sequence (looked up): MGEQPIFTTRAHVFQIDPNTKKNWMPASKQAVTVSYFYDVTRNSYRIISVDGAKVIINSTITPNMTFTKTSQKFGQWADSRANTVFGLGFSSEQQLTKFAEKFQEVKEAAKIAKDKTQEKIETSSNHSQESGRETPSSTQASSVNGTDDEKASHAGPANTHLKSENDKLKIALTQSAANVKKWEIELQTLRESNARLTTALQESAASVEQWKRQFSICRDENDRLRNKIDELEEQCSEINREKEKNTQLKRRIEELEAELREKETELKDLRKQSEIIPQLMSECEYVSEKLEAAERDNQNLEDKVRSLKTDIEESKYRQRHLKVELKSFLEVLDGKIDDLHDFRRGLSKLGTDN

[5] = target: KIF5A (UniProt Q12840); assay: yeast two hybrid screen of cDNA libraries
[6] = target: KIFAP3 (UniProt Q92845); assay: yeast two hybrid screen of cDNA libraries

binding [1]: binds
binding [2]: binds
binding [3]: binds
binding [4]: binds
binding [5]: binds
binding [6]: binds
B1: bait designed in the C-terminal region of the hBAI2 gene product (without insertion of the amino acid residue) (protein, human, UniProt O60241-2 1175-1584, looked up)
chain: MTDRRSVLFQALFAVFNSAQGFVITAVHCFLRREVQDVVKCQMGVCRADESEDSPDSCKNGQLQILSDFEKDVDLACQTVLFKEVNTCNPSTITGTLSRLSLDEDEEPKSCLVGPEGSLSFSPLPGNILVPMAASPGLGEPPPPQEANPVYMCGEGGLRQLDLTWLRPTEPGSEGDYMVLPRRTLSLQPGGGGGGGEDAPRARPEGTPRRAAKTVAHTEGYPSFLSVDHSGLGLGPAYGSLQNPYGMTFQPPPPTPSARQVPEPGERSRTMPRTVPGSTMKMGSLERKKLRYSDLDFEVMHTRKRHSELYHELNQKFHTFDRYRSQSTAKREKRWSVSSGGAAERSVCTDKPSPGERPSLSQHRRHQSWSTFKSMTLGSLPPKPRERLTLHRAAAWEPTEPPDGDFQTEV
